# Screening data

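Malaria parasite (P. falciparum) lines kept in red blood cells; parasite DNA is measured by SYBR Green fluorescence after lysis, 72 h after compound addition. Each compound was titrated across a series from about 0.000037 to 29 µM. The number is the fitted AC50, the concentration giving a half-maximal change in signal; a lower value means higher potency, whether the curve shows a decrease or an increase. Calls follow the curve class and fit quality: every row here is inconclusive, covering signal-raising curves and weak, poorly fitted, partial or highest-dose-only inhibition curves.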

Values are in nM. Every entry below has the call inconclusive. Only part of the assay is shown, chiefly results filed as inconclusive. Potencies fitted to partial, single-point or poorly fitting curves are rough. Some entries filed as inconclusive have a full curve.

compound | setting | fitted potency (nM) | remark
COC(C)(C)CCCC(C)C/C=C/C(C)=C/C(=O)OC(C)C (centres undefined) | JCK | 10000 | inhibitor, single point
COC(C)(C)CCCC(C)C/C=C/C(C)=C/C(=O)OC(C)C (centres undefined) | CP191 | 11220 | inhibitor, single point
COC(C)(C)CCCC(C)C/C=C/C(C)=C/C(=O)OC(C)C (centres undefined) | CP305 | 19011 | inhibitor, single point
COC(C)(C)CCCC(C)C/C=C/C(C)=C/C(=O)OC(C)C (centres undefined) | Dd2 | 14125 | inhibitor, single point
COC(C)(C)CCCC(C)C/C=C/C(C)=C/C(=O)OC(C)C (centres undefined) | CP256 | 11220 | inhibitor, single point
COC(C)(C)CCCC(C)C/C=C/C(C)=C/C(=O)OC(C)C (centres undefined) | N140 | 17782 | inhibitor, single point
COC(C)(C)CCCC(C)C/C=C/C(C)=C/C(=O)OC(C)C (centres undefined) | CP215 | 16944 | inhibitor, single point
COC(C)(C)CCCC(C)C/C=C/C(C)=C/C(=O)OC(C)C (centres undefined) | CP252 | 17782 | inhibitor, single point
COC(C)(C)CCCC(C)C/C=C/C(C)=C/C(=O)OC(C)C (centres undefined) | CP247 | 17782 | inhibitor, single point
COC(C)(C)CCCC(C)C/C=C/C(C)=C/C(=O)OC(C)C (centres undefined) | DIV17 | 19011 | inhibitor, single point
COC(C)(C)CCCC(C)C/C=C/C(C)=C/C(=O)OC(C)C (centres undefined) | GB4 | 16944 | inhibitor, partial curve
COC(C)(C)CCCC(C)C/C=C/C(C)=C/C(=O)OC(C)C (centres undefined) | ECU | 14125 | inhibitor, single point
COC(C)(C)CCCC(C)C/C=C/C(C)=C/C(=O)OC(C)C (centres undefined) | CP269 | 15101 | inhibitor, single point
COC(C)(C)CCCC(C)C/C=C/C(C)=C/C(=O)OC(C)C (centres undefined) | PAD | 11220 | inhibitor, single point
COC(C)(C)CCCC(C)C/C=C/C(C)=C/C(=O)OC(C)C (centres undefined) | ICS | 11220 | inhibitor, single point
COC(C)(C)CCCC(C)C/C=C/C(C)=C/C(=O)OC(C)C (centres undefined) | CP329 | 19011 | inhibitor, single point
COC(C)(C)CCCC(C)C/C=C/C(C)=C/C(=O)OC(C)C (centres undefined) | PC26 | 19011 | inhibitor, single point
COC(C)(C)CCCC(C)C/C=C/C(C)=C/C(=O)OC(C)C (centres undefined) | CP335 | 16944 | inhibitor, single point
COC(C)(C)CCCC(C)C/C=C/C(C)=C/C(=O)OC(C)C (centres undefined) | CP211 | 15101 | inhibitor, single point
COC(C)(C)CCCC(C)C/C=C/C(C)=C/C(=O)OC(C)C (centres undefined) | HB3 | 10000 | inhibitor, single point
COC(C)(C)CCCC(C)C/C=C/C(C)=C/C(=O)OC(C)C (centres undefined) | DIV30 | 15101 | inhibitor, partial curve
COC(C)(C)CCCC(C)C/C=C/C(C)=C/C(=O)OC(C)C (centres undefined) | CP201 | 19011 | inhibitor, single point
COC(C)(C)CCCC(C)C/C=C/C(C)=C/C(=O)OC(C)C (centres undefined) | AS120 | 14125 | inhibitor, single point
COC(C)(C)CCCC(C)C/C=C/C(C)=C/C(=O)OC(C)C (centres undefined) | CP194 | 15101 | inhibitor, single point
COC(C)(C)CCCC(C)C/C=C/C(C)=C/C(=O)OC(C)C (centres undefined) | CP268 | 19011 | inhibitor, single point
COC(C)(C)CCCC(C)C/C=C/C(C)=C/C(=O)OC(C)C (centres undefined) | CP203 | 19011 | inhibitor, single point
COC(C)(C)CCCC(C)C/C=C/C(C)=C/C(=O)OC(C)C (centres undefined) | 7G8 | 12589 | inhibitor, single point
COC(C)(C)CCCC(C)C/C=C/C(C)=C/C(=O)OC(C)C (centres undefined) | AA1029 | 12589 | inhibitor, single point
COC(C)(C)CCCC(C)C/C=C/C(C)=C/C(=O)OC(C)C (centres undefined) | CP260 | 17782 | inhibitor, single point
COC(C)(C)CCCC(C)C/C=C/C(C)=C/C(=O)OC(C)C (centres undefined) | ATS189 | 19952 | inhibitor, single point
COC(C)(C)CCCC(C)C/C=C/C(C)=C/C(=O)OC(C)C (centres undefined) | CP217 | 17782 | inhibitor, single point
COC(C)(C)CCCC(C)C/C=C/C(C)=C/C(=O)OC(C)C (centres undefined) | DIV14 | 11995 | inhibitor, single point
COC(C)(C)CCCC(C)C/C=C/C(C)=C/C(=O)OC(C)C (centres undefined) | CP325 | 19011 | inhibitor, single point
COC(C)(C)CCCC(C)C/C=C/C(C)=C/C(=O)OC(C)C (centres undefined) | CP291 | 15101 | inhibitor, single point
COC(C)(C)CCCC(C)C/C=C/C(C)=C/C(=O)OC(C)C (centres undefined) | CP286 | 17782 | inhibitor, single point
Cc1nc(Nc2ncc(C(=O)Nc3c(C)cccc3Cl)s2)cc(N2CCN(CCO)CC2)n1 | CP215 | 19011 | inhibitor, single point
Cc1nc(Nc2ncc(C(=O)Nc3c(C)cccc3Cl)s2)cc(N2CCN(CCO)CC2)n1 | CP297 | 19011 | inhibitor, single point
Cc1nc(Nc2ncc(C(=O)Nc3c(C)cccc3Cl)s2)cc(N2CCN(CCO)CC2)n1 | C2A | 12589 | inhibitor, partial curve
Cc1nc(Nc2ncc(C(=O)Nc3c(C)cccc3Cl)s2)cc(N2CCN(CCO)CC2)n1 | PC49 | 4467 | inhibitor, partial curve
Cc1nc(Nc2ncc(C(=O)Nc3c(C)cccc3Cl)s2)cc(N2CCN(CCO)CC2)n1 | CP247 | 2818 | inhibitor, full curve
Cc1nc(Nc2ncc(C(=O)Nc3c(C)cccc3Cl)s2)cc(N2CCN(CCO)CC2)n1 | Dd2 | 10000 | inhibitor, partial curve
Cc1nc(Nc2ncc(C(=O)Nc3c(C)cccc3Cl)s2)cc(N2CCN(CCO)CC2)n1 | AA1029 | 11220 | inhibitor, partial curve
Cc1nc(Nc2ncc(C(=O)Nc3c(C)cccc3Cl)s2)cc(N2CCN(CCO)CC2)n1 | 3D7 | 1412 | inhibitor, full curve, poor fit
Cc1nc(Nc2ncc(C(=O)Nc3c(C)cccc3Cl)s2)cc(N2CCN(CCO)CC2)n1 | CP217 | 17782 | inhibitor, single point
Cc1nc(Nc2ncc(C(=O)Nc3c(C)cccc3Cl)s2)cc(N2CCN(CCO)CC2)n1 | SC27B | 11220 | inhibitor, partial curve

Once more, the final 4:

{"compound": "Cc1nc(Nc2ncc(C(=O)Nc3c(C)cccc3Cl)s2)cc(N2CCN(CCO)CC2)n1", "setting": "AA1029", "fitted potency (nM)": "11220", "remark": "inhibitor, partial curve"}
{"compound": "Cc1nc(Nc2ncc(C(=O)Nc3c(C)cccc3Cl)s2)cc(N2CCN(CCO)CC2)n1", "setting": "3D7", "fitted potency (nM)": "1412", "remark": "inhibitor, full curve, poor fit"}
{"compound": "Cc1nc(Nc2ncc(C(=O)Nc3c(C)cccc3Cl)s2)cc(N2CCN(CCO)CC2)n1", "setting": "CP217", "fitted potency (nM)": "17782", "remark": "inhibitor, single point"}
{"compound": "Cc1nc(Nc2ncc(C(=O)Nc3c(C)cccc3Cl)s2)cc(N2CCN(CCO)CC2)n1", "setting": "SC27B", "fitted potency (nM)": "11220", "remark": "inhibitor, partial curve"}

Data taken from PubChem BioAssay AID504749, deposited by NCATS (2011).